The values that follow come from PMC3979655.

The chains behind the UniProt entries cited, without tags or fusion partners.
UniProt Q84L30: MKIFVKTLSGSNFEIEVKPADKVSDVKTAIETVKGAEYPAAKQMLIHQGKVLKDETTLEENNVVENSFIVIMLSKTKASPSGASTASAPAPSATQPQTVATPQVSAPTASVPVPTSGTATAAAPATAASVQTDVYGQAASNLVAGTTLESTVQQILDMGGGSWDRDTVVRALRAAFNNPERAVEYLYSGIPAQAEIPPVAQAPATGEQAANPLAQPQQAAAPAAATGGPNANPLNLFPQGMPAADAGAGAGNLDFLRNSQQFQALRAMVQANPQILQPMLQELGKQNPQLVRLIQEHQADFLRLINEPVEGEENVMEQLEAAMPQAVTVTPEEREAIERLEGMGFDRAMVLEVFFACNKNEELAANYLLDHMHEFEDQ
UniProt Q84L31: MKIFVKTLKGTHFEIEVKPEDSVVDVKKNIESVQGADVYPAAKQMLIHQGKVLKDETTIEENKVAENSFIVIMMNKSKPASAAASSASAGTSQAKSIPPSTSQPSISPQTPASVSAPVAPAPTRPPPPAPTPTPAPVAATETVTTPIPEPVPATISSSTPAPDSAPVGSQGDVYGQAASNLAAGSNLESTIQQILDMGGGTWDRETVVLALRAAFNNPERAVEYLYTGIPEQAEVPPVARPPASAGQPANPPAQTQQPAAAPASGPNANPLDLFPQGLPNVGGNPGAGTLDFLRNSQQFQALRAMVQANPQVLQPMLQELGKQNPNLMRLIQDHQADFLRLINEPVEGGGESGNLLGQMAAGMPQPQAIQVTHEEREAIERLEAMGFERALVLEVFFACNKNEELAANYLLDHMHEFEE

Read-outs that look alike come from different tables or passages of the source. These are yes or no findings as the source states them, for the method shown. In cells and extracts the contact can be indirect. Some entries that bind do so weakly or less than the wild type. Tags and fused reporters may be left off the sequences shown.

Assay [1] has as its target T1, GFP–SAP54 (35S:GFP–SAP54, amino acids 34 to 124) in transgenic Arabidopsis (Aster Yellows phytoplasma strain Witches' Broom (AY-WB)) (UniProt Q2NJQ2).
T1 sequence: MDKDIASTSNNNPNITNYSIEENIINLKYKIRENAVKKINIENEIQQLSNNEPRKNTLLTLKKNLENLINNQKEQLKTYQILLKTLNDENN
The assay can be described thus: co-IP; immunoprecipitation of GFP–SAP54 or GFP from transgenic Arabidopsis (Col-0 and rad23CD double mutant); blot with anti-RAD23.

Assay [2] concerns the target T1, GFP–SAP54 (35S:GFP–SAP54, amino acids 34 to 124) in transgenic Arabidopsis (Aster Yellows phytoplasma strain Witches' Broom (AY-WB)). Described as above. This is another data set of the same source.

For the molecule “RAD23D (40 kDa), endogenous in Arabidopsis (from UniProt Q84L30 1-378)”, the binding result in assay [1] is recorded as “binds”.

As to “RAD23C (44 kDa), endogenous in Arabidopsis (from UniProt Q84L31 1-419)”, the binding result in assay [1] is “binds”.

B1: RAD23A, endogenous in Arabidopsis (rad23CD double mutant) (protein, UniProt Q84L32 1-368)
chain: MKLTVKTLKGSHFEIRVLPTDTIMAVKKNIEDSQSKDNYPCGQQLLIHNGKVLKDETTLVENKVTEEGFLVVMLSKSKTASSAGPSSTQPTSTTTSTISSTTLAAPSTTQSIAVPASNSTPVQEQPTAQSDTYGQAASTLVSGSSIEQMVQQIMEMGGGSWDKETVTRALRAAYNNPERAVDYLYSGIPETVTIPATNLSGVGSGRELTAPPPSGGPNSSPLDLFPQEAVSDAAGGDLGTLEFLRGNDQFQQLRSMVNSNPQILQPMLQELGKQNPQLLRLIQENQAEFLQLLNEPYEGSDGDVDIFDQPDQEMPHSVNVTPEEQESIERLEAMGFDRAIVIEAFLSCDRNEELAANYLLEHSADFED
Take B1: in assay [2], the binding result is reported as “no binding”.

B2: RAD23B, endogenous in Arabidopsis (rad23CD double mutant) (protein, UniProt Q84L33 1-371)
chain: MKLTVKTLKGSHFEIRVLPSDTIMAVKKNIEDSQGKDNYPCGQQLLIHNGKVLKDETSLVENKVTEEGFLVVMLSKSKSGGSAGQASVQTSSVSQPVSATTSSTKPAAPSTTQSSPVPASPIPAQEQPAAQTDTYGQAASTLVSGSSLEQMVQQIMEMGGGSWDKETVTRALRAAYNNPERAVDYLYSGIPQTAEVAVPVPEAQIAGSGAAPVAPASGGPNSSPLDLFPQETVAAAGSGDLGTLEFLRNNDQFQQLRTMVHSNPQILQPMLQELGKQNPQLLRLIQENQAEFLQLVNEPYEGSDGEGDMFDQPEQEMPHAINVTPAEQEAIQRLEAMGFDRALVIEAFLACDRNEELAANYLLENSGDFED
As for B2, the binding entry in assay [2] is recorded as “no binding”.
